{"source": "paper PMC3631182", "assay_in_all_cases": "two-hybrid; yeast; TnaA baits on the GAL4 DNA-binding domain (pGBKT7), Ubc9 or OsaC2 preys on the GAL4 activation domain (pGADT7); reporters ADE2 and HIS3, growth on QDO (SD-Trp/-Leu/-Ade/-His) with 3 mM 3-AT", "key": {"[1]": {"target": "TnaA_(XSPRING2) fragment (379-927 aa) fused to the GAL4 DNA-binding domain (Drosophila melanogaster)"}, "[2]": {"target": "TnaA_(QLess) fragment (306-696 aa) fused to the GAL4 DNA-binding domain (Drosophila melanogaster)"}, "[3]": {"target": "TnaA_(SP-COO QLess) fragment (711-999 aa) fused to the GAL4 DNA-binding domain (Drosophila melanogaster)"}}, "note": "Results are given in words; binding and its absence hold for the method and conditions named. For part of these data: Binding can be weak; no strength is given. Tags and fused reporters may be left off the sequences shown.", "data": [{"binder": "OsaC2 fragment of Osa (amino acids 1951-2600) fused to the GAL4 activation domain (domain or fragment, UniProt Q8IN94 1951-2600) EERSLLLSFTPNYTMVTRKGVPVRIQPAENDIFVDERQKAWDIDTNRLYEQLEPVGSDAWTYGFTEPDPLDGIIDVFKSEIVNIPFARYIRSDKKGRKRTELASSSRKPEIKTEENSTEEQTFNKKRRLVSGGSSSSGAHAEGKKSKLTSEEFAQPNAEVKKEPGTADSDCRPVDMDIEAPQQRLTNGVAPCSSTPAIFDPRTTAKDEARVLQRRRDSSFEDECYTRDEASLHLVSESQDSLARRCIALSNIFRNLTFVPGNETVLAKSTRFLAVLGRLLLLNHEHLRRTPKTRNYDREEDTDFSDSCSSLQGEREWWWDYLITIRENMLVAMANIAGHLELSRYDELIARPLIDGLLHWAVCPSAHGQDPFPSCGPNSVLSPQRLALEALCKLCVTDANVDLVIATPPFSRLEKLCAVLTRHLCRNEDQVLREFSVNLLHYLAAADSAMARTVALQSPCISYLVAFIEQAEQTALGVANQHGINYLRENPDSMGTSLDMLRRAAGTLLHLAKHPDNRSLFMQQEQRLLGLVMSHILDQQVALIISRVLYQVSRGTGPIHSVEFRLLQQRQQQQLRPGPAGKQAASAGGSATVKAETASTETSSTEAKPAPAATTAVVNDENSNSSQQLPPAATFNDVSNSSTNSNSCGT", "values": [{"measurement": "binding", "setting": "[1]", "value": "no binding"}, {"measurement": "binding", "setting": "[2]", "value": "binds"}, {"measurement": "binding", "setting": "[3]", "value": "no binding"}]}]}
